This passage reports binding result and Kd results from publication PMC6477676, “Staufen2-mediated RNA recognition and localization requires combinatorial action of multiple domains”.

Data set [1] addresses T1, mStau2 dsRBD2 (Mus musculus) (UniProt Q8CJ67).
T1 sequence (looked up, limits assumed): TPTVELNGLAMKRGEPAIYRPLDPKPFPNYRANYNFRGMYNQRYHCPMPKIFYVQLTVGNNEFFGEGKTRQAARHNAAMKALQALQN
Description: EMSA. The conditions noted are these: binding only at >10 uM; EMSA: 5 nM RNA, protein buffer (40 mM Bis-Tris pH 7, 150 mM NaCl, 2 mM DTT presumed), 4% glycerol, 30 ug/mL yeast tRNA, RT; recombinant protein; label: 5' 32P (EMSA), biotin (SPR); letters put together from the description.

In data set [2] the target is T2, mStau2 linker-dsRBD2 (Mus musculus) (UniProt Q8CJ67).
T2 sequence (looked up, limits assumed): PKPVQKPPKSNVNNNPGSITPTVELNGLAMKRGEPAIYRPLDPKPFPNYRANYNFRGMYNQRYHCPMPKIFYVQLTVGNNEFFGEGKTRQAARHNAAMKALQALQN
Description: EMSA. The conditions noted are these: not improved vs dsRBD2; EMSA: 5 nM RNA, protein buffer (40 mM Bis-Tris pH 7, 150 mM NaCl, 2 mM DTT presumed), 4% glycerol, 30 ug/mL yeast tRNA, RT; recombinant protein; label: 5' 32P (EMSA), biotin (SPR); letters put together from the description. (In EMSA bound probe runs differently from free probe, usually more slowly.)

For data set [3], the target named is T3, mStau2 dsRBD1-2 H169A (Mus musculus) (UniProt Q8CJ67).
T3 sequence (looked up, limits assumed): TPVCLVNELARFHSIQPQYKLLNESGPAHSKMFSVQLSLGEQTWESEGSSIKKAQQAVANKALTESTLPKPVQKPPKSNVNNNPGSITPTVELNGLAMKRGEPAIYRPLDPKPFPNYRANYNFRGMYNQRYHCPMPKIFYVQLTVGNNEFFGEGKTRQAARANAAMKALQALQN
Description: SPR. To be noted: SPR: HBS-EP (10 mM HEPES pH 7.4, 150 mM NaCl, 3 mM EDTA, 0.005% P20), recombinant protein, label: 5' 32P (EMSA), biotin (SPR), letters put together from the description.

For data set [4], the target named is T4, mStau2 dsRBD1 (Mus musculus) (UniProt Q8CJ67).
T4 sequence (looked up, limits assumed): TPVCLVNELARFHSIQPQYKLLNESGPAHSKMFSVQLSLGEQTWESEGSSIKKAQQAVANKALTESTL
Put plainly: SPR. The conditions noted are these: up to 1 uM; SPR: HBS-EP (10 mM HEPES pH 7.4, 150 mM NaCl, 3 mM EDTA, 0.005% P20); recombinant protein; label: 5' 32P (EMSA), biotin (SPR); letters put together from the description.

For data set [5], the target named is T5, mStau2 dsRBD1-2 F40A (Mus musculus) (UniProt Q8CJ67).
T5 sequence (looked up, limits assumed): T3 sequence (looked up, limits assumed) with F33A, A162H
Put plainly: SPR. The conditions noted are these: Hill n 1.2, transient; SPR: HBS-EP (10 mM HEPES pH 7.4, 150 mM NaCl, 3 mM EDTA, 0.005% P20); recombinant protein; label: 5' 32P (EMSA), biotin (SPR); letters put together from the description.

Data set [6] addresses T6, mStau2 dsRBD1-4 F40A F157A (Mus musculus) (UniProt Q8CJ67).
T6 sequence (looked up, limits assumed): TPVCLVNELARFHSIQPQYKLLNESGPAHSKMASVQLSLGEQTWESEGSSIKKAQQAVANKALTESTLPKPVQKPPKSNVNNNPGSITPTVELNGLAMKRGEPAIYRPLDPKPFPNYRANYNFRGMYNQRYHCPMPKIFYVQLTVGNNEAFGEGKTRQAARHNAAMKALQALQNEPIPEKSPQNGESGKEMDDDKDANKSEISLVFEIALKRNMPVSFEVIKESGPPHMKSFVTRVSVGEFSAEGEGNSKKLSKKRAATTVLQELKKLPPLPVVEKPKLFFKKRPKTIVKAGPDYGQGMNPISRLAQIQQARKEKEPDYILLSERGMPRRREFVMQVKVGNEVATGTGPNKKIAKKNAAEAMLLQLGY
Put plainly: SPR. To be noted: strongly decreased; SPR: HBS-EP (10 mM HEPES pH 7.4, 150 mM NaCl, 3 mM EDTA, 0.005% P20); recombinant protein; label: 5' 32P (EMSA), biotin (SPR); letters put together from the description.

Data set [7] deals with T7, mStau2 dsRBD1-2 K60A (Mus musculus) (UniProt Q8CJ67).
T7 sequence (looked up, limits assumed): T3 sequence (looked up, limits assumed) with K53A, A162H
Description: SPR. The conditions noted are these: Hill n 1, transient; SPR: HBS-EP (10 mM HEPES pH 7.4, 150 mM NaCl, 3 mM EDTA, 0.005% P20); recombinant protein; label: 5' 32P (EMSA), biotin (SPR); letters put together from the description.

Data set [8] concerns the target T8, mStau2 dsRBD1-2 K106A (Mus musculus) (UniProt Q8CJ67).
T8 sequence (looked up, limits assumed): T3 sequence (looked up, limits assumed) with K99A, A162H
Put plainly: SPR. To be noted: no fit, decreased; SPR: HBS-EP (10 mM HEPES pH 7.4, 150 mM NaCl, 3 mM EDTA, 0.005% P20); recombinant protein; label: 5' 32P (EMSA), biotin (SPR); letters put together from the description.

In data set [9] the target is T9, mStau2 dsRBD1-2 K59A K60A (Mus musculus) (UniProt Q8CJ67).
T9 sequence (looked up, limits assumed): T3 sequence (looked up, limits assumed) with K52A, K53A, A162H
Put plainly: SPR. To be noted: Hill n 1, transient; SPR: HBS-EP (10 mM HEPES pH 7.4, 150 mM NaCl, 3 mM EDTA, 0.005% P20); recombinant protein; label: 5' 32P (EMSA), biotin (SPR); letters put together from the description.

For data set [10], the target named is T10, mStau2 dsRBD1-2 F157A (Mus musculus) (UniProt Q8CJ67).
T10 sequence (looked up, limits assumed): T3 sequence (looked up, limits assumed) with F150A, A162H
Description: SPR. The conditions noted are these: Hill n 1.2, strongly impaired; SPR: HBS-EP (10 mM HEPES pH 7.4, 150 mM NaCl, 3 mM EDTA, 0.005% P20); recombinant protein; label: 5' 32P (EMSA), biotin (SPR); letters put together from the description.

Positions count from the first letter of the chain named. The exact form of at least one protein or probe is not confirmed. For some of these results: A negative result means that nothing was seen under these conditions. Where a protein sequence is shown, tags need not be part of it. For some of these results: A weaker result is weaker than the reference pair of the same experiment. For some of these results: At least one verdict rests on a figure or table, not on a statement of the authors.

What is called Kd is a measure of binding affinity in units of concentration. With “GGUAUAUACAUGCACAUGCAAUUUGUGUAUGUGUAUGUAUAUA [SRS2+5]”, the binding result in [1] is reported as “binds more weakly”; in data set [2], “binds more weakly”; in [4], “no binding”; in data set [6] it was “binds more weakly”. Besides, the equilibrium dissociation constant (Kd) is over 1000 nM in data set [3] (no fit, decreased); over 1000 nM in data set [5]; over 1000 nM in data set [7]; over 1000 nM in data set [8]; over 1000 nM in data set [9].
As for “GGUAUGUGUGAAUGUGCAUGAAUAUAUAUAUAUAUGCAUAUAUAUAUUUGUAUAUGUUCACACAUG [SRS* (SRS3)]”, the Kd in [3] (Hill n 1, strongly decreased) was over 1000 nM; in data set [10], over 1000 nM; in data set [9], over 1000 nM. Moreover, the binding result in [6] is reported as “binds more weakly”.
